Test results from doi:10.1101/413799.
These are yes or no findings as the source states them, for the method shown. In cells and extracts the contact can be indirect. Some results given as binding are weak or reduced against the parent protein; the word gives no strength. Tags and fused reporters may be left off the sequences shown.

T1: GFP11-mCherry-Mps2 (budding yeast) (UniProt P53159)
T1 sequence: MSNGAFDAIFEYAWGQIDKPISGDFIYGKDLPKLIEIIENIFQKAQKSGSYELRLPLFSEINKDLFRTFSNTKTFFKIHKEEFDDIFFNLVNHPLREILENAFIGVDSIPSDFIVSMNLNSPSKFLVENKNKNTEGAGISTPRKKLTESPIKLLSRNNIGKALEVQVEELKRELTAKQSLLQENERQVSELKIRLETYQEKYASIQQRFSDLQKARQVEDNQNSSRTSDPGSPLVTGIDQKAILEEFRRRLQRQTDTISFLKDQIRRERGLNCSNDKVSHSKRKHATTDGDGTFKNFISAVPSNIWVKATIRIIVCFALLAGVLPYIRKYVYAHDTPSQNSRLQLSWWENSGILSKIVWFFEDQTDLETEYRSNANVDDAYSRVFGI

T2: YFP-Mps3 (budding yeast) (UniProt P47069)
T2 sequence: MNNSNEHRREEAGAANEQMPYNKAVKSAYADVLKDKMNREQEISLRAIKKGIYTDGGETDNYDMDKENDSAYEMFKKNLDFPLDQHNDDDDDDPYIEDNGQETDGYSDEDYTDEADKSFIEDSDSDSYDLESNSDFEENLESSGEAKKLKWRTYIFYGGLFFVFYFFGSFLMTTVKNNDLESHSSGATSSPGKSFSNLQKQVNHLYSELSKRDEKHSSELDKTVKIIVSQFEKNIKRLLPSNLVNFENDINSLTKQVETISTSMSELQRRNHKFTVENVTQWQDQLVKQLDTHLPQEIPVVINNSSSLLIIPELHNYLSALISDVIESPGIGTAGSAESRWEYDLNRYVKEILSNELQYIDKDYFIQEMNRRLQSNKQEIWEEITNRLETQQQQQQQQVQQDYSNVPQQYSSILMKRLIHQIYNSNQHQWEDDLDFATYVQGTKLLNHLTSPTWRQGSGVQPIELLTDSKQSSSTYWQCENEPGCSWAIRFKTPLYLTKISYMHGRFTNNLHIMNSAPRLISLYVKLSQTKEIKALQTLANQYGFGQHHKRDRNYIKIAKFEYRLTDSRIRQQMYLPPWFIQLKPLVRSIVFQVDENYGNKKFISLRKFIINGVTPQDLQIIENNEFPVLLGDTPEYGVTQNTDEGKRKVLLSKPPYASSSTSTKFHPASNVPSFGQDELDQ

T3: Mps2 tagged with a fluorescent protein (FRET with Nbp1) (budding yeast) (UniProt P53159)
T3 sequence: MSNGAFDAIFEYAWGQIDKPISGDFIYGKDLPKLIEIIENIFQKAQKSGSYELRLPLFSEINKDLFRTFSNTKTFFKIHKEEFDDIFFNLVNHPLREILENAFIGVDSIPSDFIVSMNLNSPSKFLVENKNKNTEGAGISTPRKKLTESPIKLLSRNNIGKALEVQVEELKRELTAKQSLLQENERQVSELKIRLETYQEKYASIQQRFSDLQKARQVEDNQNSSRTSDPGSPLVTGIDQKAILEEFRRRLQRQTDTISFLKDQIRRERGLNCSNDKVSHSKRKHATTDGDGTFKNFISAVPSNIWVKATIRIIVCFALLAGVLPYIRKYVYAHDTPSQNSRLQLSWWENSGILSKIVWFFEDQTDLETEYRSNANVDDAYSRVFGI


Tests used:
[1] = molecular target: T1, GFP11-mCherry-Mps2 (budding yeast); test: split reporter
YFP-Mps3 (budding yeast) = molecular target: T2, YFP-Mps3 (budding yeast); test: FRET or BRET
[2] = molecular target: T3, Mps2 tagged with a fluorescent protein (FRET with Nbp1) (budding yeast); test: FRET or BRET

Row | binding [1] | Binder | also measured
1 | binds | Bbp1-GFP_(1-10) (protein, UniProt Q12365 1-385) MNQEDNTGGGGIFGLFKWTKDALFGTDISPSMKYKDQEERRDRSRYAQDDTNFSMKFGNDSNRRSTNLSRSNSWSGLDSTLHRKYELLPEYNENGFNSIVNGDHHSKERIRSLRSPAPIVPREPLRNEPTDTFGHRLHTKRRTINELSNSQIPFIPPQEDDPLLSKLFNKDGVNEVRRSPYKLSVKDIPGKFPSPLTKRDEIDNYYVRDEDACHKNREYKKAYFDLFAQMDLNSRDLEDLCEDVREQREQFHRNEQTYKQAYEEMRAELVNELKKSKTLFENYYSLGQKYKSLKKVLDQTISHEAELATSRERLYQEEDLKNFEIQTLKQRLSDLELKYTNLQIEKDMQRDNYESEIHDLLLQLSLRNNERKDTSAGSNIFSTGQ | –
2 | – | Bbp1-mT2 (protein, UniProt Q12365 1-385) MNQEDNTGGGGIFGLFKWTKDALFGTDISPSMKYKDQEERRDRSRYAQDDTNFSMKFGNDSNRRSTNLSRSNSWSGLDSTLHRKYELLPEYNENGFNSIVNGDHHSKERIRSLRSPAPIVPREPLRNEPTDTFGHRLHTKRRTINELSNSQIPFIPPQEDDPLLSKLFNKDGVNEVRRSPYKLSVKDIPGKFPSPLTKRDEIDNYYVRDEDACHKNREYKKAYFDLFAQMDLNSRDLEDLCEDVREQREQFHRNEQTYKQAYEEMRAELVNELKKSKTLFENYYSLGQKYKSLKKVLDQTISHEAELATSRERLYQEEDLKNFEIQTLKQRLSDLELKYTNLQIEKDMQRDNYESEIHDLLLQLSLRNNERKDTSAGSNIFSTGQ | binding (YFP-Mps3 (budding yeast)): no binding
3 | – | Nbp1 tagged with a fluorescent protein (FRET with Mps2) (protein, UniProt P52919 1-319) MLKSVQGLWKDFFGIRDDGRKREYGSLDEVRKRSALRSRRKQMRPTGKSVLKRPRKVTDRKTEEKIRTNRRKTPKRRLTKIFQTIRDVFSNDNENMSKMQNVCGDMTRILKKRSQGRPSYMDTDTAKSRILRSDAFKRKISELKYNKQRISELRSGSSDGSSGKDRNQSLYLDREILLQRQIKKRDEKIKALESKLQSLQEALNYSNEKYRILEDLLDSSNIHPSYTKSRRTMSNLARENDEIKPLKIDLSPSPIRRTNSLFTSSPMKTYNRDGNIPEMQPLQENISPACPTPPYRSRETEKEDETLSPISVDFSSYLS | binding [2]: binds
4 | binds | Nbp1-GFP_(1-10) (protein, UniProt P52919 1-319) MLKSVQGLWKDFFGIRDDGRKREYGSLDEVRKRSALRSRRKQMRPTGKSVLKRPRKVTDRKTEEKIRTNRRKTPKRRLTKIFQTIRDVFSNDNENMSKMQNVCGDMTRILKKRSQGRPSYMDTDTAKSRILRSDAFKRKISELKYNKQRISELRSGSSDGSSGKDRNQSLYLDREILLQRQIKKRDEKIKALESKLQSLQEALNYSNEKYRILEDLLDSSNIHPSYTKSRRTMSNLARENDEIKPLKIDLSPSPIRRTNSLFTSSPMKTYNRDGNIPEMQPLQENISPACPTPPYRSRETEKEDETLSPISVDFSSYLS | –
